Source: PubChem BioAssay AID1259405 (NCATS, 2018)

- Screen: 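Silenced genes that increase secreted GFP made by CHO cells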 (primary screen)
- Cell system: Chinese hamster CHO-K1 ovary cells with stable secreted eGFP expression
- Reagents: single siRNA against mouse genes, 0.8 pmol siRNA per well (2 µl of 400 nM stock)
- Duration: 3 days
- Read-out: 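Percent of the per-plate non-targeting control median for intracellular GFP per well by laser scanning cytometry and for cell viability by ATP luminescence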
- Reading the numbers: GFP, % of control: higher = more GFP per well, higher productivity
- Rule for the call: 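a knock-down is called active if GFP reaches 120% or more of non-targeting control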
Shown is one part, drawn at random, of about 50,000 deposited reagents. About 4,000 of them (8%) were called active. 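Mouse siRNA library applied to hamster cells; one well for each siRNA.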 The numbers tell different reagents against one gene apart. Not all columns of the deposit are shown. Reagent sequences are not shown.

GFP, % of control, by target gene and reagent
Timp1: #1 76.1 inactive; #2 79.7 inactive; #3 206 active
Lrba: #1 55.3 inactive; #2 71.8 inactive; #3 102 inactive
Or5g23: #1 30.6 inactive; #2 94 inactive; #3 155 active
Mphosph8: #1 108 inactive; #2 62.8 inactive; #3 64.9 inactive
Cox7a2l: #1 109 inactive; #2 92.3 inactive; #3 85 inactive
Sult3a1: #1 37.6 inactive; #2 68.2 inactive; #3 125 active
Adamtsl1: #1 64.8 inactive; #2 100 inactive; #3 79.1 inactive
Tgoln1: #1 72.1 inactive; #2 76.1 inactive; #3 88.4 inactive
Rheb: #1 157 active; #2 85.2 inactive; #3 92.1 inactive
Rap2c: #1 150 active; #2 96 inactive; #3 120 active
Gm5420: #1 79.6 inactive; #2 89.4 inactive; #3 85.1 inactive
Pcnp: #1 43.7 inactive; #2 46.4 inactive; #3 70.2 inactive

Part of the list above in another layout.
target gene	siRNA no.	GFP, % of control	Outcome
Rheb	3	92.1	inactive
Rap2c	1	150	active
Rap2c	2	96	inactive
Rap2c	3	120	active
Gm5420	1	79.6	inactive
Gm5420	2	89.4	inactive
Gm5420	3	85.1	inactive
Pcnp	1	43.7	inactive
Pcnp	2	46.4	inactive
Pcnp	3	70.2	inactive

The results go on.
GFP, % of control, by target gene and reagent
BC005537: #1 75.8 inactive; #2 70.1 inactive; #3 141 active
Zfp563: #1 62.2 inactive; #2 129 active
Lamc2: #1 80.8 inactive; #2 83.3 inactive
Alas2: #1 69.5 inactive; #2 67.2 inactive; #3 112 inactive
Cntn6: #1 109 inactive; #2 99.9 inactive
Dusp1: #1 58.6 inactive; #2 101 inactive
Stx4a: #1 124 active; #2 52.2 inactive
Gp2: #1 98.6 inactive; #2 62.6 inactive; #3 135 active
Nell2: #1 135 active; #2 101 inactive
Gp1bb: #1 64.4 inactive; #2 69 inactive
Comt: #1 117 inactive; #2 73.3 inactive; #3 106 inactive
Maml1: #1 59.6 inactive; #2 42.8 inactive; #3 72.8 inactive
Btnl9: #1 73.2 inactive; #2 25.8 inactive; #3 77 inactive
Oas1d: #1 120 active; #2 66.1 inactive; #3 54.7 inactive
Zbtb5: #1 55.3 inactive; #2 82.4 inactive; #3 102 inactive
Xxylt1: #1 88.9 inactive; #2 151 active; #3 53.3 inactive
Upp1: #1 94.6 inactive; #2 75.6 inactive; #3 90.4 inactive
Cst6: #1 66.8 inactive; #2 67.4 inactive; #3 85.9 inactive
Slurp1: #1 113 inactive; #2 74.2 inactive
Zmat4: #1 63.8 inactive; #2 68.4 inactive; #3 53.3 inactive
Prorsd1: #1 41.6 inactive; #2 82.6 inactive; #3 52.1 inactive
F3: #1 105 inactive; #2 87.9 inactive; #3 42.2 inactive
Mpnd: #1 79.8 inactive; #2 59.8 inactive; #3 84.8 inactive
Snta1: #1 75.4 inactive; #2 113 inactive
Tm2d3: #1 94.3 inactive; #2 91.9 inactive; #3 89.2 inactive
Wipf2: #1 92.3 inactive; #2 82 inactive; #3 38.9 inactive
Mapk9: #1 59.9 inactive
Adam26b: #1 74.3 inactive; #2 131 active; #3 76.9 inactive
